Measured values reported in article PMC12040169 (PLOS Biology, 2025).
The other results are listed elsewhere or left out.

Each molecule was assayed on T1, CTL2-GFP (C. trachomatis L2/434/Bu, GFP-expressing). Details: bulk GFP, single well; 28.5 h, 10 µM; inhibitor.
T1 construct: L2/434/Bu, GFP-expressing
Design: species or system HeLa; Intracellular C. trachomatis growth in HeLa cells, bulk GFP fluorescence relative to DMSO

Row | Compound | % of control remaining
1 | O=C1CN(C(=O)Cn2c(-c3cccs3)cc3cccnc32)CCN1 [CBK282543] | 129.503%
2 | O=C(CC12CC3CC(CC(C3)C1)C2)Nc1nc[nH]n1 [CBK288208] | 104.781%
3 | CCOC(=O)c1c(NC(=O)Cn2nc([N+](=O)[O-])c(Cl)c2C)sc2c1CCC(C)C2 (centres unmarked) [CBK263054] | 100%
4 | N=c1n(CC(=O)O)c2ccccc2n1Cc1ccccc1 [CBK286531] | 113.011%
5 | O=C(O)c1ccccc1N1C(=O)c2ccc(Oc3ccc(Oc4ccc5c(c4)C(=O)N(c4ccccc4C(=O)O)C5=O)cc3)cc2C1=O [CBK261186] | 100%
6 | O=C(NCCCn1ccnc1)c1cnn2c(C(F)(F)F)cc(-c3cccs3)nc12 [CBK263060] | 100%
7 | COCCCn1c(N)c(C(=O)NCC(C)C)c2nc3ccccc3nc21 [CBK126495] | 121.471%
8 | Cc1c(C)n(Cc2ccccc2)c2ccc(C(=O)OCCN3CCOCC3)cc12 [CBK262427] | 113.425%
9 | CN1CCC(N2CCN(C(=O)Nc3ccc4c(c3)OCCO4)CC2)CC1 [CBK155898] | 138.007%
10 | Cc1ccc(OCC(O)CN2CCN(c3ccccn3)CC2)cc1C (centres unmarked) [CBK058884] | 114.558%
11 | Cc1ccc(SCCCn2ccnc2)cc1 [CBK269733C] | 109.243%
12 | CS(=O)(=O)Nc1cc(-c2noc([C@@H]3CCCN3C3CCC3)n2)ccn1 [CBK288889] | 113.847%
13 | O=C(N/N=C/C1C=Nc2ccccc21)c1cc([N+](=O)[O-])cc([N+](=O)[O-])c1 (centres unmarked) [CBK261485] | 100%
14 | Cc1nnc(N2C(=O)c3oc4ccc(Cl)cc4c(=O)c3C2c2cccnc2)s1 (centres unmarked) [CBK267010] | 120.784%
15 | Cc1ncccc1C(=O)N1CCC(c2cc3ccccc3cn2)CC1 [CBK284854] | 67.5639%
16 | O=C(CSc1ncc(C(=O)O)n1-c1ccc(F)cc1)NCCc1ccc(F)cc1 [CBK297513] | 136.166%
17 | Cc1ccc2oc([C@H]3CN(C(=O)C(C)(C)NC(=O)OC(C)(C)C)C[C@@H]3C(=O)O)cc2c1 [CBK001600] | 123.608%
18 | Cc1ccc(NC(=O)c2ccccc2OCC(=O)NC23CC4CC(CC(C4)C2)C3)cc1Cl [CBK265091] | 100%
19 | COc1ccc(NS(=O)(=O)c2ccc3c(c2)N(CC(=O)O)C(=O)CO3)cc1NS(C)(=O)=O [CBK297745] | 115.244%
20 | Cc1ccc2oc(C(=O)Nc3sc4c(c3C(=O)NCC3CCCO3)CCC4)c(C)c2c1 (centres unmarked) [CBK266282] | 145.498%
21 | Cc1c(C(=O)Nc2nc(-c3ccc(S(=O)(=O)N4CCOCC4)cc3)cs2)oc2ccc(Cl)cc12 [CBK267663] | 110.627%
22 | CCC1(CC)OC(N[C@@H](C)c2ccc(Cl)cc2)=NC1=O [CBK126666] | 138.046%
23 | O=C(CN1C2CCC1CC(O)(c1ccco1)C2)Nc1ccc(F)cc1 (centres unmarked) [CBK284062] | 105.895%
24 | N[C@H]1CCN2C(=O)c3cc(-c4ccc(F)cc4F)ccc3NC(=O)[C@H]12 [CBK289345] | 112.388%
25 | COc1ccc2c(c1)C(C(C(=O)O)C(=O)O)c1ccccc1O2 (centres unmarked) [CBK266435] | 163.875%
26 | CSc1ccc(-c2nccnc2OC(c2ccccc2)c2ccccc2)cc1 [CBK106797] | 95.3802%

Single entries from the results shown.
Under % of control remaining, O=C(CN1C2CCC1CC(O)(c1ccco1)C2)Nc1ccc(F)cc1 (centres unmarked) [CBK284062] reads 105.895%
Under % of control remaining, Cc1c(C(=O)Nc2nc(-c3ccc(S(=O)(=O)N4CCOCC4)cc3)cs2)oc2ccc(Cl)cc12 [CBK267663] reads 110.627%
Under % of control remaining, O=C(NCCCn1ccnc1)c1cnn2c(C(F)(F)F)cc(-c3cccs3)nc12 [CBK263060] reads 100%

Remaining list, next part:

Row | Compound | % of control remaining
27 | COc1cccc(N2CCN(CC(=O)N3CCC(C(N)=O)CC3)CC2)c1 [CBK202881] | 113.523%
28 | CN(C)CCN(C)c1cncc(-c2cccc(N(C)C)c2)n1 [CBK065659] | 89.6742%
29 | O=C(OCc1ccc(S(=O)(=O)c2ccccc2)cc1)c1cc(O)nc2ccccc12 [CBK266782] | 129.348%
30 | c1ccc(CN2CCC(N3CCC(N4CCc5ccccc5C4)CC3)CC2)cc1 [CBK264730G] | 123.541%
31 | O=C(O)CC1C(=O)NCCN1Cc1ccc(F)c(F)c1 (centres unmarked) [CBK270008] | 125.94%
32 | CN(C)C(CNc1cncc(-c2cccc(Cl)c2)n1)c1cccnc1 (centres unmarked) [CBK037247] | 76.9913%
33 | Cc1cc(C)nc(N2CCC(CC(=O)NCCOc3cccc(F)c3)CC2)n1 [CBK285996] | 110.721%
34 | CCc1ccc(C(=O)C(C)OC(=O)c2nc3nc(C)cc(C)n3n2)cc1 (centres unmarked) [CBK305023] | 134.88%
35 | Cc1ccc(N2CCCN(C(=O)COc3ccccc3F)CC2)nn1 [CBK305261] | 79.63%
36 | O=C(Oc1cccc2cccnc12)c1cccc(S(=O)(=O)Oc2cccc3cccnc23)c1 [CBK264545] | 100%
37 | O=C(O)C(Cc1ccccc1)NS(=O)(=O)c1ccc(I)cc1 (centres unmarked) [CBK268807] | 127.119%
38 | OC1CCN(Cc2c(-c3cccs3)[nH]c3ncccc23)CC1 [CBK283318] | 149.165%
39 | O=C1CNC(=O)C2(C/C=C/C[C@H]3COCC[C@H]3N1)CCN(CCOc1ccccc1)CC2 [CBK292077] | 137.055%
40 | Cc1ccc(CNc2cc(C)ccn2)cc1 [CBK005419] | 119.715%
41 | CCc1nc(C(C)NCC(=O)Nc2cc(C)nn2C)cs1 (centres unmarked) [CBK305118] | 140.342%
42 | COc1ccc(Cl)cc1C(=O)Nc1cnn(CCCC(=O)O)c1 [CBK269855] | 119.18%
43 | O=C(O)C1CCC1C(=O)N1CCN(c2nc3ccc(Cl)cc3s2)CC1 (centres unmarked) [CBK057108] | 117.856%
44 | Brc1ccc(-n2cnnn2)cc1 [CBK027696] | 116.132%
45 | Cc1nc(C)c(C(=O)Nc2c(C)noc2C)s1 [CBK200313] | 172.69%
46 | COc1ccc(-c2nc(NC(=O)C3CCC(OC)CC3)cnc2-c2cccc(C)c2)cn1 (centres unmarked) [CBK036813] | 117.629%
47 | OCc1c(-c2ccc(F)cc2)[nH]c2ncccc12 [CBK283328] | 118.218%
48 | Cc1ccc2oc(C(=O)N(C)Cc3c(C)nn(C)c3C)c(C)c2c1 [CBK281631] | 117.724%
49 | COC(=O)CN1C(=O)S/C(=C/c2cc(C)n(-c3ccc4ncccc4c3)c2C)C1=O [CBK265275] | 101.866%
50 | COC(=O)c1c(NC(=O)COc2ccc(Br)cc2)sc2c1CCC2 [CBK263369] | 124.903%
51 | Cc1cccc(C)c1NC(=O)CN1CCC(Oc2cncc(OCCN3CCOCC3)n2)C1 (centres unmarked) [CBK084489] | 100%
52 | Cc1ccnc(SCc2ccc(F)cc2Cl)n1 [CBK270290] | 108.815%

Row | Compound | % of control remaining
53 | O=C(c1ccccc1F)N1CCC(n2c(=O)oc3ccccc32)CC1 [CBK284346] | 106.908%
54 | OCCN1CC2(CCN(CC3COc4ccccc4O3)CC2)c2ccccc21 (centres unmarked) [CBK143955] | 100%
55 | COc1ccccc1CC(=O)N1CCN(Cc2ccco2)C[C@@H]1C [CBK285481] | 92.614%
56 | O=C(Nc1ccccc1C(=O)O)c1ccc(Cl)c(S(=O)(=O)N2CCCCC2)c1 [CBK261763] | 93.7481%
57 | CCOC(=O)CN1CC(O)CC1c1cccc(C(F)(F)F)c1 (centres unmarked) [CBK304169] | 94.4363%
58 | O=C(c1ccco1)N1CCN(C(=O)c2c(F)cccc2F)CC1 [CBK144479] | 100%
59 | CN1c2ccccc2C(c2ccccc2)=NS1(=O)=O [CBK022873] | 102.828%
60 | Cn1nc(-c2ccccc2)cc1[C@H]1CN2CC[C@H]1C[C@@H]2CNC(=O)NCc1ccccc1 [CBK289098] | 136.502%
61 | CCc1cc(OCc2ccc(Cn3nc(NC(C)=O)c4ccccc43)cc2)c2ccccc2n1 [CBK048402] | 100%
62 | Cn1cc(-c2ncc(OCc3ccc4c(c3)OCO4)nc2N)cn1 [CBK145168] | 106.319%
63 | O=C(CSc1ccc(Cl)cc1)Nc1ccc(S(=O)(=O)N2CCOCC2)cc1 [CBK262723] | 99.8195%
64 | O=C(NCc1cccs1)c1ccc(-n2ccnc2)c(-n2cccc2)c1 [CBK285366] | 103.202%
65 | COc1cc(OC)c2nc(C(F)(F)F)cc(Cl)c2c1 [CBK006518] | 153.249%
66 | CCCc1cc(C(=O)OC)c(NC(=O)c2c(C)noc2C)s1 [CBK058088] | 129.621%
67 | Cc1nc2cccnc2n1C1CCN(C(=O)NCc2ccccc2)CC1 [CBK282291] | 128.774%
68 | O=S(=O)(c1ccc(-c2csc(-c3ccccc3)n2)cc1)N1CCCCCC1 [CBK265504] | 100%
69 | CC(=O)N1CCc2sccc2C1c1ccc(NC(=O)c2ccc(F)cc2)cc1 (centres unmarked) [CBK286434] | 130.117%
70 | COc1ccc(CNC(=O)C(=O)NCc2ccccc2)cc1 [CBK262158] | 100%
71 | CC(C)(C)C1=CC2=NC3(CCCC3)[C@@H]3C[C@@H](O)[C@@H](O)[C@@H]3N2O1 [CBK303245] | 135.308%
72 | O=C(NCc1ccco1)c1ccc2c(=O)n(-c3ccccc3)c(=O)[nH]c2c1 [CBK287823] | 128.84%
73 | O=c1[nH]nc2c(SCc3ccccc3)nccn12 [CBK288440] | 110.107%
74 | O=C(O)Cc1cc2c(n1Cc1ccc(F)cc1)CCCC2=O [CBK283866] | 120.961%
75 | CCC(C)NC(=O)C1CCC(=O)N1Cc1ccc(C)cc1 (centres unmarked) [CBK294470] | 133.288%
76 | Cc1ccc(S(=O)(=O)NC(C)(C)CSc2nncn2N)cc1 [CBK266297] | 191.928%
77 | CC(C)(C)OC(=O)N1CC2(C1)N=C1C=C(C(C)(C)C)ON1[C@H]1[C@H](O)[C@H](O)C[C@H]12 [CBK303240] | 154.445%
